Laboratory results: PubChem BioAssay AID493246 (Drosophila RNAi Screening Center, 2011)
Screen: 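Genome-wide search for dsRNAs that reduce cell number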 (primary screen). Cells: Drosophila Kc and S2R+ cells. Knock-down reagent: long dsRNA against Drosophila genes. Measurement: 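Cell number per well after knock-down, printed as raw plate values; calls were based on per-plate z-scores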. Direction: Kc cell number and S2R+ cell number: higher = more cells remaining. Call rule: 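Active when the per-plate z-score of cell number is 3 or more in the direction of fewer cells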.
The deposit covers about 21,000 reagents; shown is a random part of those that have a named target and a result. In the full data, 429 (2%) are marked active. 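Values are raw and not normalised between plates; calls rest on per-plate z-scores that were not deposited.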 Entries without a mark were called inactive. Names joined by + are all predicted targets of the reagent. Not stated in the record: the amount of reagent, the time to read-out.

Gene | amplicon | Kc cell number, rep 1 | Kc cell number, rep 2 | S2R+ cell number, rep 1 | S2R+ cell number, rep 2
mTor | DRSC02811 | 1.37e6 | 1.39e6 | 1.07e6 | 1.19e6
spaw | DRSC06824 | 1.41e6 | 1.56e6 | 1.19e6 | 1.32e6
Sobp | DRSC07312 | 1.43e6 | 1.50e6 | 1.07e6 | 1.09e6
CG3902 | DRSC10387 | 1.62e6 | 1.83e6 | 1.18e6 | 1.39e6
CG30043 | DRSC06285 | 1.44e6 | 1.52e6 | 1.20e6 | 1.43e6
TH1 | DRSC20289 | 6.47e5 | – | 8.90e5 | –
CG13585 | DRSC04221 | 1.71e6 | 1.75e6 | 1.39e6 | 1.49e6
Mkk4 | DRSC16739 | 1.50e6 | 1.72e6 | 1.20e6 | 1.28e6
CG17198 + CG17197 | DRSC15190 | 1.68e6 | 1.86e6 | 9.81e5 | 1.18e6
CG17198 + CG17197 | DRSC15191 | 1.68e6 | 1.59e6 | 1.01e6 | 1.05e6
CG32452 | DRSC11581 | 1.70e6 | 1.73e6 | 1.09e6 | 1.35e6
CG42500 | DRSC14822 | 1.50e6 | 1.17e6 | 9.78e5 | 9.64e5
RhoGEF64C | DRSC08318 | 1.38e6 | 1.49e6 | 1.37e6 | 1.29e6
RhoGEF64C | DRSC08319 | 1.57e6 | 1.48e6 | 1.03e6 | 1.11e6
snsl | DRSC00543 | 1.47e6 | 1.46e6 | 1.15e6 | 1.29e6
TfIIFbeta | DRSC16884 | 1.42e6 | 1.55e6 | 1.24e6 | 1.35e6
CG10445 | DRSC14247 | 1.39e6 | 1.50e6 | 1.28e6 | 1.35e6
Rpn1 | DRSC11274 | 8.53e5 (active) | 9.78e5 | 7.53e5 | 8.24e5
CG32075 | DRSC10622 | 1.51e6 | 1.49e6 | 1.25e6 | 1.29e6
dnd | DRSC16064 | 1.36e6 | 1.45e6 | 1.02e6 | 1.07e6
Remo | DRSC19710 | 1.83e6 | 1.74e6 | 1.09e6 | 1.18e6
Usp1 | DRSC14155 | 5.56e5 | – | 7.99e5 | –
CG15894 | DRSC18098 | 1.45e6 | 1.42e6 | 1.07e6 | 1.14e6
CG15894 | DRSC18099 | 1.40e6 | 1.43e6 | 8.20e5 | 9.10e5
Hex-t1 | DRSC16701 | 1.63e6 | 1.94e6 | 1.10e6 | 1.14e6
CG14634 | DRSC17944 | 1.56e6 | 1.49e6 | 1.08e6 | 1.17e6
pim | DRSC03591 | 1.25e6 | 1.33e6 | 7.92e5 | 8.39e5
ana | DRSC07579 | 1.38e6 | 1.40e6 | 1.07e6 | 1.18e6
RpL19 | DRSC04649 | 7.28e5 (active) | 8.20e5 | 5.12e5 | 4.52e5
Smr | DRSC19495 | 1.84e5 (active) | – | 4.56e5 | –
Smr | DRSC20288 | 7.53e5 (active) | 8.14e5 | 4.69e5 | 5.53e5
Cyp6t1 | DRSC20564 | 1.50e6 | 1.53e6 | 1.06e6 | 1.16e6
CG5440 | DRSC00685 | 1.71e6 | 1.74e6 | 9.96e5 | 1.13e6
Tollo | DRSC11305 | 1.27e6 | 1.45e6 | 1.39e6 | 1.41e6
CG16772 | DRSC02516 | 1.58e6 | 1.65e6 | 1.24e6 | 2.63e5
CG43999 | DRSC14605 | 1.55e6 | 1.63e6 | 9.71e5 | 1.12e6
CG14803 | DRSC18556 | 1.78e6 | 1.81e6 | 1.13e6 | 1.27e6
Poxm | DRSC16793 | 1.34e6 | 1.34e6 | 9.87e5 | 1.13e6
Or85e (retired record) | DRSC16768 | 1.46e6 | 1.67e6 | 1.33e6 | 1.55e6
CG1074 | DRSC12143 | 1.66e6 | 1.63e6 | 1.48e6 | 1.54e6
CG12025 | DRSC08230 | 1.42e6 | 1.40e6 | 1.09e6 | 1.34e6
mEFTu1 | DRSC06959 | 1.37e6 | 1.41e6 | 1.06e6 | 1.08e6
Neurochondrin | DRSC12580 | 1.61e6 | 1.63e6 | 1.33e6 | 1.41e6
c-cup | DRSC00458 | 1.63e6 | 1.67e6 | 1.16e6 | 1.21e6
sicily | DRSC19704 | 1.60e6 | 1.62e6 | 1.07e6 | 1.21e6
yellow-h | DRSC17141 | 1.50e6 | 1.51e6 | 1.01e6 | 1.14e6
ReepB | DRSC07150 | 1.53e6 | 1.56e6 | 1.21e6 | 1.21e6
CG13126 | DRSC02222 | 1.57e6 | 1.66e6 | 1.39e6 | 1.51e6
CG13404 | DRSC19536 | 1.60e6 | 1.65e6 | 1.13e6 | 1.25e6
asp | DRSC16903 | 1.58e6 | 1.79e6 | 1.19e6 | 1.32e6
CG3368 | DRSC15485 | 5.14e5 | – | 8.72e5 | –
fzr | DRSC18781 | 1.55e6 | 1.52e6 | 1.07e6 | 1.16e6
CG11052 | DRSC14288 | 1.57e6 | 1.94e6 | 1.26e6 | 1.39e6
CG8192 | DRSC07101 | 1.34e6 | 1.40e6 | 7.55e5 | 8.01e5
COX8 | DRSC11814 | 1.27e6 | 1.36e6 | 1.07e6 | 1.14e6
CG30492 (retired record) + M7BP | DRSC05053 | 1.51e6 | 1.59e6 | 9.88e5 | 1.10e6
CG30492 (retired record) + M7BP | DRSC05054 | 1.38e6 | 1.59e6 | 9.93e5 | 1.09e6
CG30492 (retired record) + M7BP | DRSC05055 | 1.59e6 | 1.64e6 | 1.04e6 | 1.11e6
CG30492 (retired record) + M7BP | DRSC06701 | 1.58e6 | 1.60e6 | 1.27e6 | 1.47e6
CG30492 (retired record) + M7BP | DRSC06816 | 1.64e6 | 1.68e6 | 1.37e6 | 1.49e6
RhoGAP1A | DRSC20649 | 1.44e6 | 1.49e6 | 1.02e6 | 1.12e6
RhoGAP1A | DRSC20651 | 1.43e6 | 1.50e6 | 9.74e5 | 1.12e6
Vps37B | DRSC12165 | 1.59e6 | 1.73e6 | 1.10e6 | 1.23e6
moon | DRSC19497 | 1.57e6 | 1.47e6 | 1.07e6 | 1.21e6
bma | DRSC09896 | 1.30e6 | 1.29e6 | 1.34e6 | 1.39e6
bma | DRSC10164 | 1.22e6 | 1.29e6 | 1.37e6 | 1.33e6
CG30394 | DRSC04074 | 1.52e6 | 1.62e6 | 1.29e6 | 3.08e5
CG30394 | DRSC04260 | 1.54e6 | 1.61e6 | 1.32e6 | 2.94e5
Elba2 | DRSC00731 | 1.28e6 | 1.36e6 | 8.76e5 | 8.56e5
CG6051 | DRSC15956 | 4.87e5 | – | 6.89e5 | –
Letm1 | DRSC04476 | 1.31e6 | 1.39e6 | 8.91e5 | 9.94e5
CG13358 | DRSC18534 | 1.50e6 | 1.54e6 | 9.95e5 | 1.14e6
CG17883 | DRSC07838 | 1.45e6 | 1.30e6 | 9.53e5 | 1.23e6
CG8501 | DRSC07198 | 1.34e6 | 1.44e6 | 1.09e6 | 1.16e6
PolD3 | DRSC01961 | 1.29e6 | 1.32e6 | 1.28e6 | 1.26e6

Sorted by “S2R+ cell number, rep 1” (descending): 7 of the entries above.
Gene | amplicon | Kc cell number, rep 1 | Kc cell number, rep 2 | S2R+ cell number, rep 1 | S2R+ cell number, rep 2
CG30492 (retired record) + M7BP | DRSC06816 | 1.64e6 | 1.68e6 | 1.37e6 | 1.49e6
CG30492 (retired record) + M7BP | DRSC06701 | 1.58e6 | 1.60e6 | 1.27e6 | 1.47e6
CG30492 (retired record) + M7BP | DRSC05055 | 1.59e6 | 1.64e6 | 1.04e6 | 1.11e6
RhoGAP1A | DRSC20649 | 1.44e6 | 1.49e6 | 1.02e6 | 1.12e6
CG30492 (retired record) + M7BP | DRSC05054 | 1.38e6 | 1.59e6 | 9.93e5 | 1.09e6
CG30492 (retired record) + M7BP | DRSC05053 | 1.51e6 | 1.59e6 | 9.88e5 | 1.10e6
RhoGAP1A | DRSC20651 | 1.43e6 | 1.50e6 | 9.74e5 | 1.12e6
